From PMC12040169 (PLOS Biology, 2025) come the findings set out here.

SMILES strings stand for the structures. Some of the results follow.

The assay has as its system T1, CTL2-GFP (C. trachomatis L2/434/Bu, GFP-expressing).
T1 construct: L2/434/Bu, GFP-expressing
Details: species or system HeLa; Intracellular C. trachomatis growth in HeLa cells, bulk GFP fluorescence relative to DMSO. To be noted: bulk GFP, single well; 28.5 h, 10 µM; inhibitor.
Turning to `O=C(CC1NCCNC1=O)Nc1cccc(Cl)c1` (centres unmarked) [CBK266454], the “% of control remaining” value was 89.3427%. `O=C(O)C1C2C=CC(C2)C1C(=O)NCc1ccco1` (centres unmarked) [CBK265453]: the “% of control remaining” value was found to be 120.255%. As to `Cc1ccc(-n2cc(-c3ccccc3)[nH]c2=O)cc1` [CBK288103], the “% of control remaining” value came to 140.693%. On to `Cc1nc2ccccc2nc1SCc1nc(N)nc(N2CCCCC2)n1` [CBK270218], for which the “% of control remaining” value is reported as 134.704%. Take `Cn1nccc1C(=O)N[C@H]1CCC[C@@H](c2c[nH]c3ccccc23)C1` [CBK285073]: the “% of control remaining” value is 123.201%. `CC(C)Nc1nccnc1Sc1ccccc1O` [CBK089492]: the “% of control remaining” value was 115.192%. For the compound `O=C(Nc1ccc2n(c1=O)C[C@@H]1CNC[C@H]2C1)c1ccncc1` [CBK289177], the “% of control remaining” value worked out at 97.963%. In the case of `CC(O)CNC(=O)c1cn2cc(-c3cccs3)n(CC3CC3)c(=O)c2n1` (centres unmarked) [CBK307117], the “% of control remaining” value is given as 137.286%. On to `O=C(c1cc(-c2cccc(Br)c2)nc2ccccc12)N1CCN(C/C=C/c2ccccc2)CC1` [CBK262633], for which the “% of control remaining” value is 96.58%.

Take `CS(=O)(=O)Nc1nccnc1OC1CCN(CCCn2c(=O)[nH]c3ccccc32)CC1` [CBK084277]: the “% of control remaining” value is on record as 117.94%. In the case of `CC(CCO)CNS(=O)(=O)c1ccc(N2CCCC2=O)cc1` (centres unmarked) [CBK306358], the “% of control remaining” value stood at 89.1359%.

On to `Cc1ccc(C2(CN3CCC(NC(=O)c4cc[nH]n4)CC3)CC2)cc1` [CBK285360], for which the “% of control remaining” value is on record as 123.043%. Consider `NS(=O)(=O)c1ccc(CNC(=O)c2cc(-c3ccncc3)nc3ccc(Cl)cc23)cc1` [CBK267770], for which the “% of control remaining” value came out at 94.9862%. For `C=CCn1c(-c2sc(NC(=O)CN3C(=C)c4ccccc4C3=O)nc2C)n[nH]c1=S` [CBK297909], the “% of control remaining” value is 112.911%. As for `Cc1ccc2[nH]cc(CCN3CCC(C(=O)NC(=O)Nc4ccccc4F)CC3)c2c1` [CBK034974], the “% of control remaining” value came to 102.169%. Consider `COc1cncc(-c2cccc(N3CCN(CCN(C)C)CC3)n2)c1` [CBK037024], for which the “% of control remaining” value was 118.502%.

Regarding `CCCNC(=O)C(C)Sc1nc2ccsc2c(=O)n1CC` (centres unmarked) [CBK296745], the “% of control remaining” value was found to be 127.485%.

With `Cc1ccn2cc(-c3ccc4c(c3)CC(C)N4S(C)(=O)=O)cc2c1` (centres unmarked) [CBK285253], the “% of control remaining” value is 120.143%.

Regarding `CS(=O)(=O)c1ccc(-c2ccc3c(c2)OCCN(C2CCN(C(=O)CC(F)(F)F)CC2)C3)cc1` [CBK169260], the “% of control remaining” value was 112.16%. The figure for `Cc1ccc(S(=O)(=O)Nc2nnc(C)s2)cc1` [CBK045486] is 127.947%; for `O=C(CN1C(=O)[C@@H]2CCCN2C(=O)c2ccccc21)N1CCCC1` [CBK282434] it is 110.146%; for `CN1CCCN(c2cncc(-c3cccs3)n2)CC1` [CBK065542] it is 91.0486%. For `O=C(O)C1C2C=CC3(CN(C4CCCCC4)C(=O)C13)O2` (centres unmarked) [CBK287248], the “% of control remaining” value is 115.699%. Consider `CCS(=O)(=O)c1ccc2oc([C@H]3CCN(C(=O)C4CCCCC4)C3)nc2c1` [CBK289381], for which the “% of control remaining” value was 157.258%.

For the compound `Cc1noc(C)c1C(=O)N1CCCCCC1c1cnn(C)c1` (centres unmarked) [CBK284974], the “% of control remaining” value is recorded as 132.603%. Turning to `Sc1nnc(-c2ccncc2)n1C1CCCCC1` [CBK288421], the “% of control remaining” value worked out at 103.697%.

Regarding `CC(=O)c1cnc2cc(-c3ccc(Cl)cc3)nn2c1C` [CBK051484], the “% of control remaining” value was determined as 136.233%. Regarding `CCc1cc(Br)ccc1S(=O)(=O)Nc1cccc2cccnc12` [CBK045012], the “% of control remaining” value worked out at 97.9089%.

Consider `CCS(=O)(=O)Nc1cc(N2CCNCC2)c2occc2c1` [CBK059429C], for which the “% of control remaining” value was found to be 116.62%.

For the compound `CCOc1ccc(/N=c2\scc(-c3ccc(OC)c(Br)c3)n2CCc2ccccc2)cc1` [CBK263654B], the “% of control remaining” value is 100%. For `Cc1ccc(-c2nnc(C3CCCN(C(=O)C(C)C)C3)o2)s1` (centres unmarked) [CBK283058], the “% of control remaining” value was determined as 147.677%.

Turning to `Cc1ccc(S(=O)(=O)c2nc(NCCN3CCOCC3)sc2Cl)cc1` [CBK269615], the “% of control remaining” value was 142.606%. For the compound `N#Cc1c[nH]nc1NS(=O)(=O)c1ccc(F)cc1` [CBK051018], the “% of control remaining” value is 118.031%.

On to `Cn1nnnc1SCC(=O)Nc1cccc2nsnc12` [CBK268973], for which the “% of control remaining” value is 111.568%. Regarding `c1nc(Nc2ccc3[nH]ccc3c2)cc(-c2ccc3c(c2)OCO3)n1` [CBK037761], the “% of control remaining” value is recorded as 92.9789%. With `O=C(Cc1csc(NS(=O)(=O)c2ccc(-c3cccc([N+](=O)[O-])c3)cc2)n1)N1CCOCC1` [CBK200032], the “% of control remaining” value came to 100.019%.

As for `COc1ccc(CCNC(=O)N(CCC#N)C2CCCCC2)cc1OC` [CBK156363], the “% of control remaining” value came to 104.276%. With `O=C(NCC1CCCN1)c1cc(C(=O)c2ccc(Cl)cc2Cl)c[nH]1` (centres unmarked) [CBK115923C], the “% of control remaining” value stood at 101.238%. As to `O=C(O)c1ccc2c(c1)C(=O)N(c1ccc(C3(c4ccc(N5C(=O)c6ccc(C(=O)O)cc6C5=O)cc4)c4ccccc4-c4ccccc43)cc1)C2=O` [CBK261195], the “% of control remaining” value came out at 113.43%. The figure for `COC(=O)[C@H]1CN(C(=O)CN2CCCC2=O)C[C@@H]1c1ccccc1F` [CBK283518] is 125.014%; for `CCn1c(SCC(=O)NC(=O)NC2CCCCC2)nc2ccccc21` [CBK306037] it is 139.788%; for `c1csc(-c2cncc(NCCc3ccncc3)n2)c1` [CBK065797] it is 113.513%. As to `CN(CC(=O)Nc1cccc(Cl)c1)S(=O)(=O)c1ccc2ccccc2c1` [CBK266746], the “% of control remaining” value turned out to be 149.599%.

On to `COC(=O)c1c(C)n(CCCNc2ccc([N+](=O)[O-])cc2Cl)c2ccc(O)cc12` [CBK268363], for which the “% of control remaining” value was 158.068%. In the case of `CC(=O)Nc1ccc(NC(=O)COc2c(C)cc(Br)cc2C)cc1` [CBK267321], the “% of control remaining” value was determined as 118.2%. On to `Cc1nc([N+](=O)[O-])c(NCCO)n1Cc1ccccc1` [CBK261422], for which the “% of control remaining” value is listed as 100%. With `N#Cc1nc(=O)[nH]cc1N` [CBK021411], the “% of control remaining” value worked out at 132.18%. Consider `CCOC(=O)c1c(NC(=O)CSc2n[nH]c(N)n2)sc2c1CCCCC2` [CBK266569], for which the “% of control remaining” value was 99.3587%. Regarding `Cc1ccc(N(CC(=O)Nc2cccc3ccccc23)S(=O)(=O)c2ccc(F)cc2)cc1` [CBK262707], the “% of control remaining” value is 72.556%. With `Cn1cnnc1C1CCN(C(=O)CC2OCCc3sccc32)CC1` (centres unmarked) [CBK304912], the “% of control remaining” value is listed as 110.09%.
